No constants are given. Whether binding was seen depends on the method and setting. Binding seen in cells or lysates may run through a third protein. Some entries that bind do so weakly or less than the wild type.

The target in the assay is Polo-like kinase 1 (PLK1), endogenous (human (endogenous in HeLa)) (UniProt P53350). The assay is described as follows: co-IP; endogenous proteins from HeLa cell lysates (RIPA buffer), control conditions or nocodazole treatment to arrest cells at M phase; polyclonal antibodies and protein A-Sepharose, 1 hr; Western blot. On the technique in general: Immunoblotting shows a protein as a band on a membrane.

Turning to “CRAF, endogenous (from UniProt P04049 1-648)”, the binding result is “binds”.

The record behind these values is article PMC4811775.
